From patent US20170121379A1
Results are given in words; binding and its absence hold for the method and conditions named. Some results given as binding are weak or reduced against the parent protein; the word gives no strength.

Experiments:
human CD20 (human) [1] = target: T1, human CD20 (human) (UniProt P11836); test: flow cytometry on human PBMC, biotinylated fusion protein, FITC-streptavidin surface staining
T1 sequence (looked up): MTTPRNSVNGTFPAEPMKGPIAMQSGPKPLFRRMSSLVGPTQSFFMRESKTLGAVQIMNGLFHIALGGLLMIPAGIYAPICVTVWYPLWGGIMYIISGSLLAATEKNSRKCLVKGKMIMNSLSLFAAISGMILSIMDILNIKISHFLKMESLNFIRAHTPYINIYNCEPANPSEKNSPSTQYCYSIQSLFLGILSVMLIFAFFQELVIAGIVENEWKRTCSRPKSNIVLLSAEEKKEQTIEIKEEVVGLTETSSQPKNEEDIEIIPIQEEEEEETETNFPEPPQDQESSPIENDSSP

human CD20 (human) [2] = target: T1, human CD20 (human); test: flow cytometry on Raji cells (5x10^5 cells, 1 ug fusion protein, 1 h 37 C), detection with APC anti-human IgG
human CD20 (human) [3] = target: T1, human CD20 (human); test: confocal imaging of cells treated 60 min at 37 C, streptavidin staining
human CD20 (human) [4] = target: T1, human CD20 (human); test: flow cytometry on Raji cells, detection with APC anti-human IgG

Measured: binding

B1: BAIThCD20-FVIII2191-2210 (Fc fusion, not shown: a dimerising Fc or GST)
chain: MAQVQLVQSGAELVKPGASVKMSCKASGYTFTSYNMHWVKQTPGQGLEWIGAIYPGNGDTSYNQKFKGKATLTADKSSSTAYMQLSSLTSEDSAVYYCARAQLRPNYWYFDVWGAGTTVTVSGGGGSGGGGSGGGGSDIVLSQSPAILSASPGEKVTMTCRASSSVSYMHWYQQKPGSSPKPWIYATSNLASGVPARFSGSGSGTSYSLTISRVEAEDAATYYCQQWISNPPTFGAGTKLELKTASSYFTNMFATWSPSKARL
binds: human CD20 (human) [1] | human CD20 (human) [2] | human CD20 (human) [3] | human CD20 (human) [4]
